According to patent US9689042B2, “Use of glycolytic pathways for inhibiting or measuring oncogenic signaling” (The Regents of the University of California, priority 2012, dated 2017):
For at least one compound, name, drawing or mass did not settle the structure.

How the values were obtained:
T4-2 cells = settings: 3D lrECM; for phenotypic reversion of the malignant phenotype: 2DG 4 mM, IA 20 μM, OX 50 mM, Azs 20 μM, DON 20 μM, BADGP 5 mM, TM 10 ng/ml, OGM 4 ng/ml, Rapa 0.01-1.0 μM
Procedure: HMT-3522 cells were cultured on tissue culture plastic (2D) and in 3D lrECM gels with H14 medium, a 1:1 mix of DMEM/F12 (UCSF Cell Culture Facility) supplemented with 250 ng/ml insulin, 10 μg/ml transferrin, 2.6 ng/ml sodium selenite, 0.1 nM β-estradiol, 1.4 μM hydrocortisone and 5 μg/ml prolactin but no serum. S1 cells were additionally supplemented with 10 ng/ml EGF. MDA-MB-231 and HCC70 cells were cultured in DMEM and RPMI1640, respectively, and were supplemented with 10% fetal bovine serum (FBS).
For 3D lrECM cultures, S1 and T4-2 cells were seeded at 840,000 and 600,000 cells per cm3 respectively in lrECM gel (Cultrex), overlaid with H14 medium. MDA-MB-231 and HCC70 cells were seeded at 625,000 cell per cm3 and overlaid with H14 medium supplemented with 1% FBS. Cells were used for each assay after 10 days, unless otherwise indicated.
Pieces of lrECM gel containing cell colonies were suspended in approximately the same volume of phosphate buffered saline (PBS) and directly spread on glass slides. After brief air-drying, colonies were fixed with 3.7% paraformaldehyde (PFA) in PBS at room temperature (RT) for 10 min, washed with PBS containing 0.1 mM glycine, and permeabilized with 1:1 methanol/acetone at −20° C. for 10 min. After blocking with IF buffer (0.2% Triton X-100, 0.1% BSA [radioimmunoassay grade], 0.05% Tween 20, 7.7 mM NaN3 in PBS) containing 10% goat serum and 1% goat F(ab′)2 anti-mouse immunoglobulin G (IgG; Caltag) at RT for 30 min, colonies were stained with anti-α6 integrin antibody (Chemicon International) at 4° C. overnight. Colonies were washed extensively with IF buffer, and stained with Alexa 568-labeled anti-rat IgG antibody at RT for 2 hr. Colonies were washed with IF buffer again, and nuclei were stained with DAPI at RT for 10 min. Slides were briefly washed with PBS and mounted with 50% glycerol in PBS. […]

[1] = system: EGFR, β1 integrin, Akt, MEK, GLUT3, glycolytic enzymes in T4-2 cells; assay: Western blots of signaling intermediates, GLUT3 and metabolic enzymes in 3D lrECM cultures of T4-2 cells; format: cell-based, human
Procedure: Cell colonies were separated from lrECM gels by shaking in PBS containing 5 mM EDTA and the proteinase inhibitor cocktail set I (Calbiochem) on ice for 30 min. Cells were lysed in lysis buffer (1% NP-40, 1% deoxycholate, 2% SDS, 150 mM NaCl, 20 mM Tris-HCl [pH 7.4] plus 5 mM EDTA and protease inhibitor cocktail set I and phosphatase inhibitor cocktail set I [Calbiochem]) and sonicated three times for 30 sec each. Proteins were separated by SDS-PAGE, transferred to nitrocellulose membranes, and probed with antibodies against the following proteins: phosphorylated MEK, MEK, phosphorylated Akt, Akt, phosphorylated AMPK, AMPK, p70S6K, phosphorylated p70S6K, CHOP, EPAC1 (Cell Signaling), β1 integrin, EGFR, activated EGFR, HIF-1α, (Chemicon International), PFKP (Abgent), GAPDH, GLUT3 (GeneTex), LDHA, PDHE1α, DLAT, DLD, HIF-3α, Rap1, sAC, EPAC2, OGT, Lamin A/C (Santa Cruz Biotechnology), Aldolase (Polysciences), GFPT (ProteinTech Group), HIF-2α (Abcam), and HA-tag (Covance). After probing with HRP-conjugated secondary antibodies, blots were developed using SuperSignal West Femto chemiluminescence reagent (Pierce Biotechnology). Images were captured using Fluor Chem 8900 imager (Alpha Innotech).

SMILES | phenotypic reversion of the malignant phenotype (T4-2 cells) | growth / proliferation (cell numbers at the colony mid-section, EdU incorporation) (T4-2 cells; same inhibitor concentrations as E1) | levels and/or activities of EGFR, β1 integrin, Akt and MEK (oncogenic signaling) ([1]; Western blot) | EGFR and MEK ([1]; basal medium 17.5 mM glucose, IA 20 μM, OX 50 mM)
CO[C@H]1C[C@@H]2CC[C@@H](C)[C@@](O)(O2)C(=O)C(=O)N2CCCC[C@H]2C(=O)O[C@H]([C@H](C)C[C@@H]2CC[C@@H](O)[C@H](OC)C2)CC(=O)[C@H](C)/C=C(\C)[C@@H](O)[C@@H](OC)C(=O)[C@H](C)C[C@H](C)/C=C/C=C/C=C/1C [rapamycin] | did not induce phenotypic reversion | partially reduced | partially reduced Akt activity | 
NC(=O)C(=O)O [OX, Oxamate] | do induce phenotypic reversion |  |  | not affected appreciably
